From patent US20240342158A1, “METHOD OF TREATING AND/OR PREVENTING TYPE 1 DIABETES WITH CEPHARANTHINE” (ALBERT EINSTEIN COLLEGE OF MEDICINE, priority 2021, published 2024)
Some results were stated once for a whole list of compounds, not compound by compound.

Sequences of proteins named here, by UniProt entry; tags and fusion partners are left off. A change or cut given only in a name is not applied to a line headed by its entry. Residues count along the entry.
UniProt P01903, 26-216: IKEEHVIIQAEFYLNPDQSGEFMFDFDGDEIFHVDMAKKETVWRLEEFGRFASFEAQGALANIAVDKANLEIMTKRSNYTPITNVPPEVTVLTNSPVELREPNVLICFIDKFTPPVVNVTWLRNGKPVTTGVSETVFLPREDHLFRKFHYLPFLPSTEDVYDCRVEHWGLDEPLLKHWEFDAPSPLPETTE
UniProt P01911, 30-227 W38E/Q39Y/P40S/K41T/R42S/F55Y/Y61H/S66N/I96L/A100K/A102G/A103R/T106N/Q125H/Q178H: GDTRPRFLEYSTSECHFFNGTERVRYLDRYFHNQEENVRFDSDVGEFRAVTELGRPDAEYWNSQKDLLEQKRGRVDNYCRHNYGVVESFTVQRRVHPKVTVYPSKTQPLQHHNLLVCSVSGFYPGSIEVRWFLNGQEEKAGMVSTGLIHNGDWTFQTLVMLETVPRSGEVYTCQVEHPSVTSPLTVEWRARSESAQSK

Target: recombinant APS3v-HLA-DR3 (Homo sapiens, UniProt P01903+P01911, A100K/A102G/A103R/F55Y/I96L/K41T/P40S/Q125H/Q178H/Q39Y/R42S/S66N/T106N/W38E/Y61H)
Assay: ELISA inhibition assay of biotinylated peptide binding to recombinant APS3v-HLA-DR3
Settings: ELISA confirmation of virtual screen hits; APO peptide; 0.4 mM small molecule
Description: An in vitro binding assay was performed. […] On the day before the immunoassay was performed, a 96-well DELFIA yellow plate (PerkinElmer Life Science) was coated overnight with 20 μg/ml of L243 antibody [Hybridoma was purchased from ATCC, catalogue number HB-55, and IgG was purified by QED Bioscience (San Diego, CA)] in bicarbonate buffer, pH 9.6 (Sigma-Aldrich). L243 is a monoclonal antibody that specifically recognizes the DRa chain of HLA-DR when it is properly folded and complexed with the b chain. The plate was then washed with DELFIA wash buffer (diluted 1:25 from DELFIA wash concentrate, PerkinElmer) to wash off the excess L243 antibody. Blocking was performed using 2.5% BSA in PBS at room temperature for 1 h. After washing 4 times, 100 μl of the pre-incubated mix (containing recombinant APS3v-HLA-DR3 protein, APO, and small molecules) were added onto the plate and shaken at slow speed for 2 h at room temperature. After washing 4 times, DELFIA Europium-labeled streptavidin (PerkinElmer) diluted in DELFIA assay buffer (PerkinElmer) was added for 30 min and shaken at slow speed at room temperature. After washing for 6 times, DELFIA Enhancement Solution was added for 1 h until the optimal signal was reached. Time-resolved fluorescence was measured using the BMG reader (BMG Labtech, Cary, NC). […]

COc1ccc2cc1Oc1ccc(cc1)C[C@H]1c3c(cc4c(c3Oc3cc5c(cc3OC)CCN(C)[C@@H]5C2)OCO4)CCN1C [S53, Cepharanthine]
inhibition of peptide binding to HLA-DR3: ≥ 50%
